# Part of at least one peptide drawing is inferred or uncertain, most often the ends.
# Tests used:
# [1] = tested on: MDA-MB-231 human breast cancer-xenografted tumor; assay: SPECT/CT tumor imaging of MDA-MB-231 xenografted nude mouse; assay type: in vivo; conditions: 1 h post-injection, 5.6 MBq
# [2] = tested on: DU145 human prostate cancer-xenografted tumor; assay: SPECT/CT tumor imaging of DU145 xenografted nude mouse; assay type: in vivo; conditions: 0.5 h post-injection, 33.3 MBq
smiles,measurement,setting,value
"CC(C)C[C@H](NC(=O)[C@@H](CCCCNC(=O)CCCCCNC(=O)CN1CCN(CC(=O)O)CCN(CC(=O)O)CCN(CC(=O)O)CC1)NC(=O)[C@H](Cc1ccc(O)cc1)NC(=O)[C@H](CO)NC(=O)[C@H](Cc1c[nH]c2ccccc12)NC(=O)[C@H](Cc1c[nH]cn1)NC(=O)[C@@H]1CCC(=O)N1)C(=O)N[C@@H](CCCNC(=N)N)C(=O)N1CCC[C@H]1C(=O)NCC(N)=O [^111In-DOTA-Ahx-(D-Lys^6-GnRH1), metal not drawn]",visualization of xenografted tumors by SPECT/CT,[1],clearly visualized
same,visualization of xenografted tumors by SPECT/CT,[2],clearly visualized

# Reference: US9180214B1, “Gonadotropin-releasing hormone receptor-targeting peptides and their use to treat and diagnose cancer” (STC.UNM, priority 2011, dated 2015)
